These are yes or no findings as the source states them, for the method shown. Binding seen in cells or lysates may run through a third protein. Some entries that bind do so weakly or less than the wild type. Tags and fused reporters may be left off the sequences shown.
Columns and labels:
[1] = target: T1, Flag-CTC1^L1142H (human) (UniProt Q2NKJ3); test: co-IP; Flag-CTC1 (WT or L1142H), HA-STN1 and Myc-TEN1 co-expressed in HEK293T cells; crude lysates, TEB150 buffer, overnight 4°C; blot for endogenous DNA Pol-α (Figures 7a, 7b)
T1 sequence: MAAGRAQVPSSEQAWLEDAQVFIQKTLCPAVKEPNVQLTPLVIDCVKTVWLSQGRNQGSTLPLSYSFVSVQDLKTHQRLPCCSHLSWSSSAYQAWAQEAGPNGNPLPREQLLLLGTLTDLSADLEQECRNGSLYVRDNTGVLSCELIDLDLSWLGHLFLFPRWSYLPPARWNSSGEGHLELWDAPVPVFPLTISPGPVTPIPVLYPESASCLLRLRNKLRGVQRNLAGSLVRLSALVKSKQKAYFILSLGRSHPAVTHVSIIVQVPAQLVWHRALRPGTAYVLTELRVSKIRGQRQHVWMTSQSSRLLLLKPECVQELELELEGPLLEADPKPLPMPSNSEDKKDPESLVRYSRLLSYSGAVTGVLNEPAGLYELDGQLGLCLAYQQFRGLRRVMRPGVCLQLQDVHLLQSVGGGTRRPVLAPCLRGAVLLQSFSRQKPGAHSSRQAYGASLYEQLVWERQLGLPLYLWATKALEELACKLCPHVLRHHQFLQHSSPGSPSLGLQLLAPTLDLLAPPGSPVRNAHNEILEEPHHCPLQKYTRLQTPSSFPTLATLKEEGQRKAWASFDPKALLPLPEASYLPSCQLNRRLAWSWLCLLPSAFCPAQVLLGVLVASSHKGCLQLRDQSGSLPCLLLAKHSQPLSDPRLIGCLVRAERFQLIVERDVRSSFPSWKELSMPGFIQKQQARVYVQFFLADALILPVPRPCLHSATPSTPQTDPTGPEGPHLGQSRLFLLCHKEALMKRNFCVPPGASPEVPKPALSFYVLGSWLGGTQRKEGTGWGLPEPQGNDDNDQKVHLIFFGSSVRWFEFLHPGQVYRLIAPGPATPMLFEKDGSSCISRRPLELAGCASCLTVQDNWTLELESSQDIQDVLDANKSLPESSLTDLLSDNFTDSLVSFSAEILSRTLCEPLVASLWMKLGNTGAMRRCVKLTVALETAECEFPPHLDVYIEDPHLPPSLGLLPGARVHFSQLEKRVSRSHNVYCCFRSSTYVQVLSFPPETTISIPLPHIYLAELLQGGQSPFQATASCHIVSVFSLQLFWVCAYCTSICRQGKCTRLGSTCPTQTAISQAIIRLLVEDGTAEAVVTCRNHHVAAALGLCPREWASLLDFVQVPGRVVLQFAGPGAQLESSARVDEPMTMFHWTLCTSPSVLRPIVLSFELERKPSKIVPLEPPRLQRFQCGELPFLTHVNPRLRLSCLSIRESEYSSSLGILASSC

[2] = target: T1, Flag-CTC1^L1142H (human); test: co-IP; Flag-CTC1 (WT or mutant) together with HA-STN1, no Myc-TEN1; antibody cross-linked sepharose beads incubated with crude cell lysates in TEB150 buffer (50 mM Hepes pH 7.3, 150 mM NaCl, 2 mM MgCl2, 5 mM EGTA, 0.5% Triton X-100, 10% glycerol) overnight at 4°C; immunoblot; endogenous DNA Pol-α (Figures 1f, 5a, 6a, 7a, 7b)
[3] = target: T2, WT Flag-CTC1 (human) (UniProt Q2NKJ3); test: as above
T2 sequence: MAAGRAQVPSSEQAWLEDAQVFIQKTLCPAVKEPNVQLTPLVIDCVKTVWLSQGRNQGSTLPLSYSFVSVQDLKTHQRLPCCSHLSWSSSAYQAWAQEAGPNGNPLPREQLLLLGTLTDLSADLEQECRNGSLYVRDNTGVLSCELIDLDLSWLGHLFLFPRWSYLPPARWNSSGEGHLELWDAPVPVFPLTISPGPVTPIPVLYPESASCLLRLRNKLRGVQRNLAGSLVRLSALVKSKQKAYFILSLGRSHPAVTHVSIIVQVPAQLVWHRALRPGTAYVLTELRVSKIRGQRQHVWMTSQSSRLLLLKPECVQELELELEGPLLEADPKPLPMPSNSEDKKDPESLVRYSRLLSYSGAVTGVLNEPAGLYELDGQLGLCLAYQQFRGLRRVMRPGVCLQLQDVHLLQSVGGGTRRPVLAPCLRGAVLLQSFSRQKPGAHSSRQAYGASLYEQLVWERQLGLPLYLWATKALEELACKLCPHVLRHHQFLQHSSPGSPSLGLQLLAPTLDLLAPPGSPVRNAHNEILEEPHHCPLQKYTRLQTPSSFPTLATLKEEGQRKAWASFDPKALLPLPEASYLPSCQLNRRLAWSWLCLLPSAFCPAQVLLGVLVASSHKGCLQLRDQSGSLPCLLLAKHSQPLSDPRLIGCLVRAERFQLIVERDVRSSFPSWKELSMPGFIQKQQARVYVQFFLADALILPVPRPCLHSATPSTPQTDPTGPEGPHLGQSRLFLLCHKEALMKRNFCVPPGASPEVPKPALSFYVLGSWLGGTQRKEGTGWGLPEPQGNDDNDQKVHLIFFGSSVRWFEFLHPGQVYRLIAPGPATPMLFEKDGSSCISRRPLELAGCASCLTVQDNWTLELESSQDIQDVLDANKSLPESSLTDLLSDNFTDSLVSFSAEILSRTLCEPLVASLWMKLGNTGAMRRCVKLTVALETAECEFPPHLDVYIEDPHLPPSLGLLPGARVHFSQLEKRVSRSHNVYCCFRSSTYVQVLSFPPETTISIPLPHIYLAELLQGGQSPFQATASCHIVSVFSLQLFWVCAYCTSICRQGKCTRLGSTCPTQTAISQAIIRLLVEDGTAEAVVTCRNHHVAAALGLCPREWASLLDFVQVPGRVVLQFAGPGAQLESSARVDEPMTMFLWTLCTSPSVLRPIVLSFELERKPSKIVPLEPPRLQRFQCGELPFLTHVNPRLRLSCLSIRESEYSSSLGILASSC

B1: HA-STN1 (protein, UniProt Q9H668 1-368)
chain: MQPGSSRCEEETPSLLWGLDPVFLAFAKLYIRDILDMKESRQVPGVFLYNGHPIKQVDVLGTVIGVRERDAFYSYGVDDSTGVINCICWKKLNTESVSAAPSAARELSLTSQLKKLQETIEQKTKIEIGDTIRVRGSIRTYREEREIHATTYYKVDDPVWNIQIARMLELPTIYRKVYDQPFHSSALEKEEALSNPGALDLPSLTSLLSEKAKEFLMENRVQSFYQQELEMVESLLSLANQPVIHSASSDQVNFKKDTTSKAIHSIFKNAIQLLQEKGLVFQKDDGFDNLYYVTREDKDLHRKIHRIIQQDCQKPNHMEKGCHFLHILACARLSIRPGLSEAVLQQVLELLEDQSDIVSTMEHYYTAF
B1 was tested, and the binding [1] was “binds”, the binding [2] was “binds weakly” and the binding [3] was “binds”.
